No constants are given. Whether binding was seen depends on the method and setting. Binding seen in cells or lysates may run through a third protein. Binding calls can cover weak binding; strength is not graded here. Tags and fused reporters may be left off the sequences shown. One block for each binder: values may come before it.
Target: Hevea rubber transferase 1-REF bridging protein (HRBP) fused to CFP (Hevea brasiliensis)
Experiment: co-IP; N. benthamiana leaves co-infiltrated with pairs of constructs, homogenised after 3 d in 150 mM Tris-HCl pH 7.5, 150 mM NaCl, 1.5% Triton X-100; GFPTrap or RFPTrap beads, 2 h at 4 °C; immunoblot with anti-GFP or anti-RFP; done in both directions

binding: no binding
B1: rubber elongation factor (REF) fused to mCherry (protein, UniProt P15252 1-138)
chain: MAEDEDNQQGQGEGLKYLGFVQDAATYAVTTFSNVYLFAKDKSGPLQPGVDIIEGPVKNVAVPLYNRFSYIPNGALKFVDSTVVASVTIIDRSLPPIVKDASIQVVSAIRAAPEAARSLASSLPGQTKILAKVFYGEN

binding: binds
B2: cis-prenyltransferase CPT6 fused to mCherry (enzyme, UniProt Q8W3U4 1-284)
chain: MELYNGERPSVFRLLGKYMRKGLYSILTQGPIPTHIAFILDGNGRFAKKHKLPEGGGHKAGFLALLNVLTYCYELGVKYATIYAFSIDNFRRKPHEVQYVMNLMLEKIEGMIMEESIINAYDICVRFVGNLKLLDEPLKTAADKIMRATAKNSKFVLLLAVCYTSTDEIVHAVEESSKDKLKSDEICNDGNGDCVIKIEEMEPYSEIKLVELERNTYINPYPDVLIRTSGETRLSNYLLWQTTNCILYSPHALWPEIGLRHVVWAVINCQRHYSYLEKHKEYLK

— PMC5853894
